{"source": "PubChem BioAssay AID1259290 | Sanger Institute – 2017", "assay": "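Kinases whose loss kills colorectal cancer cells alone or alongside targeted drugs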 (primary screen)", "cells": "human SNUC1 colorectal cancer cells", "reagent": "siRNA pool against human genes", "conditions": "anchor drugs BYL719 1 µM, cetuximab 5 µg/ml or trametinib 10 nM, or DMSO vehicle alone", "measurement": "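Cell viability relative to a non-targeting siRNA control, replicate-averaged, as robust z-score for knock-down alone, plus a synergy score for each anchor drug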", "direction": "viability z-score, siRNA alone: higher = more viable cells; low values mean essential gene; viability vs control, siRNA alone: higher = more viable cells", "rule for the call": "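Essential when the robust viability z-score with siRNA alone falls below -3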", "calls": "active = essential: knock-down alone cut viability (z below -3); inactive = no clear viability loss with knock-down alone", "note": "The whole screen tested 794 reagents; below is a random part of them. 9 of them (1.1%) were called active. 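Calls rest on knock-down alone, not drug synergy; synergy above 0.15 was grouped apart and does not affect calls.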 A number with no mark means an inactive call. Viability is capped at 1. Not all columns of the deposit are shown. No sequences are given here. The record does not give: the amount of reagent, the time to read-out."}
{"gene": "TRIO (trio Rho guanine nucleotide exchange factor)", "viability z-score, siRNA alone": 0.224, "viability vs control, siRNA alone": 0.936}
{"gene": "SRPK3 (SRSF protein kinase 3)", "viability z-score, siRNA alone": -1.22, "viability vs control, siRNA alone": 0.806}
{"gene": "GCK (glucokinase)", "viability z-score, siRNA alone": -0.246, "viability vs control, siRNA alone": 0.894}
{"gene": "ADCK5 (aarF domain containing kinase 5)", "viability z-score, siRNA alone": 0.646, "viability vs control, siRNA alone": 0.974}
{"gene": "MAP3K20 (mitogen-activated protein kinase kinase kinase 20)", "viability z-score, siRNA alone": 0.13, "viability vs control, siRNA alone": 0.927}
{"gene": "EFNB3 (ephrin B3)", "viability z-score, siRNA alone": -1.02, "viability vs control, siRNA alone": 0.824}
{"gene": "ZC3H11A (zinc finger CCCH-type containing 11A)", "viability z-score, siRNA alone": 0.936, "viability vs control, siRNA alone": 1}
{"gene": "STK38L (serine/threonine kinase 38 like)", "viability z-score, siRNA alone": -1.16, "viability vs control, siRNA alone": 0.812}
{"gene": "PIK3CB", "viability z-score, siRNA alone": 0.936, "viability vs control, siRNA alone": 1}
{"gene": "PTK2B (protein tyrosine kinase 2 beta)", "viability z-score, siRNA alone": -1.06, "viability vs control, siRNA alone": 0.82}
{"gene": "GRK3 (G protein-coupled receptor kinase 3)", "viability z-score, siRNA alone": 0.936, "viability vs control, siRNA alone": 1}
{"gene": "MKNK2 (MAPK interacting serine/threonine kinase 2)", "viability z-score, siRNA alone": 0.536, "viability vs control, siRNA alone": 0.964}
{"gene": "DGKD (diacylglycerol kinase delta)", "viability z-score, siRNA alone": 0.886, "viability vs control, siRNA alone": 0.995}
{"gene": "MTOR (mechanistic target of rapamycin kinase)", "viability z-score, siRNA alone": 0.936, "viability vs control, siRNA alone": 1}
{"gene": "PRKG1 (protein kinase cGMP-dependent 1)", "viability z-score, siRNA alone": -0.667, "viability vs control, siRNA alone": 0.856}
{"gene": "CDK19 (cyclin dependent kinase 19)", "viability z-score, siRNA alone": 0.157, "viability vs control, siRNA alone": 0.93}
{"gene": "MAP3K21 (mitogen-activated protein kinase kinase kinase 21)", "viability z-score, siRNA alone": -0.985, "viability vs control, siRNA alone": 0.827}
{"gene": "PRKY (protein kinase Y-linked (pseudogene))", "viability z-score, siRNA alone": 0.544, "viability vs control, siRNA alone": 0.965}
{"gene": "TGFBR2 (transforming growth factor beta receptor 2)", "viability z-score, siRNA alone": -0.0604, "viability vs control, siRNA alone": 0.91}
{"gene": "ITPKC (inositol-trisphosphate 3-kinase C)", "viability z-score, siRNA alone": 0.936, "viability vs control, siRNA alone": 1}
{"gene": "CDK16 (cyclin dependent kinase 16)", "viability z-score, siRNA alone": 0.936, "viability vs control, siRNA alone": 1}
{"gene": "HIPK1 (homeodomain interacting protein kinase 1)", "viability z-score, siRNA alone": 0.936, "viability vs control, siRNA alone": 1}
{"gene": "COQ8B (coenzyme Q8B)", "viability z-score, siRNA alone": 0.936, "viability vs control, siRNA alone": 1}
{"gene": "ACVR1B (activin A receptor type 1B)", "viability z-score, siRNA alone": 0.0939, "viability vs control, siRNA alone": 0.924}
{"gene": "MUSK (muscle associated receptor tyrosine kinase)", "viability z-score, siRNA alone": 0.936, "viability vs control, siRNA alone": 1}
{"gene": "CDC42BPB (CDC42 binding protein kinase beta)", "viability z-score, siRNA alone": -0.341, "viability vs control, siRNA alone": 0.885}
{"gene": "BMPR2 (bone morphogenetic protein receptor type 2)", "viability z-score, siRNA alone": -0.0896, "viability vs control, siRNA alone": 0.908}
{"gene": "MAST3 (microtubule associated serine/threonine kinase 3)", "viability z-score, siRNA alone": -0.113, "viability vs control, siRNA alone": 0.905}

Looked up above:
CDC42BPB (CDC42 binding protein kinase beta), viability vs control, siRNA alone → 0.885
HIPK1 (homeodomain interacting protein kinase 1), viability z-score, siRNA alone → 0.936
For “viability vs control, siRNA alone”, MAP3K21 (mitogen-activated protein kinase kinase kinase 21) has 0.827
